Measured data: PubChem BioAssay AID652259 (Drosophila RNAi Screening Center, 2013)

- Screen: 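Genome-wide hunt for genes that control Wingless pathway activity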 (primary screen)
- System: Drosophila clone 8 imaginal disc epithelial cells
- Reagent: long dsRNA against Drosophila genes
- Conditions: pathway stimulated by co-transfected Wingless expression plasmid
- Measurement: 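Dual luciferase reads per well after Wingless plasmid stimulation: reporter firefly light and Renilla control light; activity is firefly divided by Renilla, a ratio not deposited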
- Scale: firefly reporter light: higher = more Wg reporter light, before normalisation; Renilla control light: higher = more transfected or surviving cells
- Active means: 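a knock-down is a candidate when at least two out of four statistical tests show it departing from its plate mean; one test alone signals a weak candidate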
- Meaning of the calls: active = candidate regulator (raises or lowers reporter); inactive = not a candidate
The screen tested about 22,000 reagents; shown is an unselected part of those with a known target gene and a result. In the full data, 233 (1.1%) were called active. 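Light values are raw, unnormalised plate reads; the ratio scores behind the reporter calls were not deposited.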 No sequences are given here. The record does not give: the amount of reagent, the time to read-out, the dose of the treatment.

| Gene | DRSC id | reporter change call, replicate 1 | firefly reporter light, replicate 1 | firefly reporter light, replicate 2 | Renilla control light, replicate 1 | Renilla control light, replicate 2 | Outcome |
| --- | --- | --- | --- | --- | --- | --- | --- |
| CG5446 (GeneID 34655) | DRSC02862 | – | 2225 | 4443 | 1018 | 2374 | inactive |
| CG14720 (GeneID 41415) | DRSC14942 | – | 20057 | – | 4405 | – | inactive |
| NimB1 (GeneID 34813) | DRSC01880 | – | 17673 | – | 4709 | – | inactive |
| MP1 (GeneID 40541) | DRSC12124 | – | 11080 | 7.89e5 | 4710 | 3.97e5 | inactive |
| CG13377 (GeneID 30972) | DRSC18622 | – | 18545 | – | 13376 | – | inactive |
| CG11474 (GeneID 37514) | DRSC04112 | – | 18275 | – | 6109 | – | inactive |
| cpx (GeneID 64877) | DRSC11999 | – | 3424 | – | 1428 | – | inactive |
| pAbp (GeneID 37070) | DRSC07659 | – | 7708 | – | 2440 | – | inactive |
| comt (GeneID 47091) | DRSC20319 | – | 14571 | – | 7376 | – | inactive |
| kug (GeneID 40191) | DRSC10911 | – | 5466 | – | 2069 | – | inactive |
| Chsy (GeneID 32497) | DRSC20175 | – | 12232 | – | 6338 | – | inactive |
| Chsy (GeneID 32497) | DRSC20176 | – | 22674 | 7.59e5 | 9353 | 2.93e5 | inactive |
| Oamb (GeneID 43982) | DRSC13433 | – | 3149 | – | 1888 | – | inactive |
| Oamb (GeneID 43982) | DRSC15120 | – | 20266 | – | 4317 | – | inactive |
| Oamb (GeneID 43982) | DRSC16763 | – | 19889 | – | 5756 | – | inactive |
| Taf3 (GeneID 43793) | DRSC17170 | – | 3384 | 6013 | 737 | 1090 | inactive |
| CG3556 (GeneID 31380) | DRSC18309 | – | 4123 | 10072 | 1921 | 2868 | inactive |
| CG32379 (GeneID 326211) | DRSC10318 | – | 1088 | 8864 | 989 | 2992 | inactive |
| CG15356 (GeneID 33370) | DRSC00386 | – | 2648 | 6178 | 1008 | 1925 | inactive |
| lush (GeneID 40136) | DRSC11364 | – | 15168 | – | 5168 | – | inactive |
| obe (GeneID 41891) | DRSC15736 | – | 5427 | – | 2320 | – | inactive |
| eIF1A (GeneID 44260) | DRSC16937 | Wg reporter activity raised | 1.13e5 | – | 2544 | – | active |
| casp (GeneID 36769) | DRSC07164 | – | 8870 | – | 3787 | – | inactive |
| mRpL3 (GeneID 32523) | DRSC20100 | – | 16154 | – | 8808 | – | inactive |
| Sobp (GeneID 36260) | DRSC07312 | – | 16539 | – | 2214 | – | inactive |
| CG13295 (GeneID 38692) | DRSC09969 | – | 1504 | 8885 | 1267 | 4288 | inactive |
| CG7655 (GeneID 42128) | DRSC16275 | – | 2928 | 9383 | 1368 | 2290 | inactive |
| CG7367 (GeneID 34094) | DRSC03049 | – | 1773 | 6216 | 823 | 3446 | inactive |
| CG13196 (GeneID 36250) | DRSC06321 | – | 8313 | – | 2455 | – | inactive |
| CG10927 (GeneID 37135) | DRSC06014 | – | 19434 | – | 5185 | – | inactive |
| Naus (GeneID 37076) | DRSC06011 | – | 19995 | – | 3856 | – | inactive |
| Naus (GeneID 37076) | DRSC06469 | Wg reporter activity raised | 10816 | – | 1811 | – | inactive |
| KrT95D (GeneID 42843) | DRSC16725 | – | 1484 | 5728 | 476 | 2428 | inactive |
| Sap-r (GeneID 43662) | DRSC16849 | – | 4611 | 13228 | 1803 | 4377 | inactive |
| Sap-r (GeneID 43662) | DRSC21916 | – | 5.60e5 | 5.62e5 | 1.43e5 | 1.44e5 | inactive |

Copied from above for reference:
| Gene | DRSC id | reporter change call, replicate 1 | firefly reporter light, replicate 1 | firefly reporter light, replicate 2 | Renilla control light, replicate 1 | Renilla control light, replicate 2 | Outcome |
| --- | --- | --- | --- | --- | --- | --- | --- |
| CG13377 (GeneID 30972) | DRSC18622 | – | 18545 | – | 13376 | – | inactive |
| CG11474 (GeneID 37514) | DRSC04112 | – | 18275 | – | 6109 | – | inactive |
| cpx (GeneID 64877) | DRSC11999 | – | 3424 | – | 1428 | – | inactive |
| pAbp (GeneID 37070) | DRSC07659 | – | 7708 | – | 2440 | – | inactive |
| comt (GeneID 47091) | DRSC20319 | – | 14571 | – | 7376 | – | inactive |
| kug (GeneID 40191) | DRSC10911 | – | 5466 | – | 2069 | – | inactive |
| Chsy (GeneID 32497) | DRSC20175 | – | 12232 | – | 6338 | – | inactive |
| Chsy (GeneID 32497) | DRSC20176 | – | 22674 | 7.59e5 | 9353 | 2.93e5 | inactive |
| Oamb (GeneID 43982) | DRSC13433 | – | 3149 | – | 1888 | – | inactive |
| Oamb (GeneID 43982) | DRSC15120 | – | 20266 | – | 4317 | – | inactive |
| Oamb (GeneID 43982) | DRSC16763 | – | 19889 | – | 5756 | – | inactive |
| Taf3 (GeneID 43793) | DRSC17170 | – | 3384 | 6013 | 737 | 1090 | inactive |
| CG3556 (GeneID 31380) | DRSC18309 | – | 4123 | 10072 | 1921 | 2868 | inactive |

More results follow.
| Gene | DRSC id | reporter change call, replicate 1 | firefly reporter light, replicate 1 | firefly reporter light, replicate 2 | Renilla control light, replicate 1 | Renilla control light, replicate 2 | Outcome |
| --- | --- | --- | --- | --- | --- | --- | --- |
| SerRS (GeneID 33518) | DRSC00496 | – | 10058 | – | 5225 | – | inactive |
| Or42b (GeneID 35516) | DRSC04913 | – | 2611 | 7644 | 923 | 3056 | inactive |
| CG11590 (GeneID 32368) | DRSC19411 | – | 17675 | – | 7905 | – | inactive |
| CG6652 (GeneID 39905) | DRSC10686 | – | 3700 | – | 1328 | – | inactive |
| mtt (GeneID 35832) | DRSC05106 | – | 33959 | – | 9786 | – | inactive |
| mtt (GeneID 35832) | DRSC05107 | – | 13178 | – | 9200 | – | inactive |
| mtt (GeneID 35832) | DRSC06753 | – | 2660 | 4690 | 1212 | 2441 | inactive |
| mtt (GeneID 35832) | DRSC07235 | – | 3206 | 6208 | 965 | 2615 | inactive |
| CG1958 (GeneID 31661) | DRSC18196 | – | 18012 | – | 8009 | – | inactive |
| Ir94f (GeneID 318632) | DRSC13621 | – | 2356 | – | 1258 | – | inactive |
| CG13476 (GeneID 39602) | DRSC10019 | – | 4778 | – | 2194 | – | inactive |
| Syb (GeneID 36080) | DRSC07559 | – | 12097 | – | 3818 | – | inactive |
| NetA (GeneID 32398) | DRSC20261 | – | 17618 | – | 8118 | – | inactive |
| Zip89B (GeneID 41975) | DRSC16128 | – | 12691 | – | 3548 | – | inactive |
| Cyp303a1 (GeneID 49165) | DRSC03300 | – | 2019 | 7026 | 944 | 2544 | inactive |
| CG4115 (GeneID 41499) | DRSC15545 | – | 14640 | – | 3226 | – | inactive |
| raskol (GeneID 32754) | DRSC19202 | – | 2682 | – | 1376 | – | inactive |
| raskol (GeneID 32754) | DRSC19731 | – | 23879 | – | 10053 | – | inactive |
| raskol (GeneID 32754) | DRSC19964 | – | 22565 | – | 7881 | – | inactive |
| raskol (GeneID 32754) | DRSC19967 | Wg reporter activity raised | 19691 | – | 2246 | – | active |
| raskol (GeneID 32754) | DRSC21788 | – | 3.12e5 | 4.61e5 | 1.67e5 | 1.82e5 | inactive |
| CR40282 (GeneID 12798062) | DRSC07814 | – | 5707 | – | 2106 | – | inactive |
| Sdb (GeneID 36573) | DRSC06272 | – | 6194 | – | 2784 | – | inactive |
| Sdb (GeneID 36573) | DRSC06273 | – | 9414 | – | 3910 | – | inactive |
| Sdb (GeneID 36573) | DRSC07155 | – | 13441 | – | 4464 | – | inactive |
| Lk (GeneID 47746) | DRSC10022 | – | 10891 | – | 4147 | – | inactive |
| stol (GeneID 34921) | DRSC01956 | – | 1973 | 4122 | 720 | 1960 | inactive |
| CG14011 (GeneID 33790) | DRSC02343 | – | 1888 | 5714 | 779 | 2753 | inactive |
| CG5966 (GeneID 31532) | DRSC18394 | – | 2696 | 7883 | 826 | 2268 | inactive |
| bbg (GeneID 39583) | DRSC11077 | – | 9728 | – | 4288 | – | inactive |
| bbg (GeneID 39583) | DRSC11079 | – | 6411 | – | 2193 | – | inactive |
| alpha-Man-Ia (GeneID 31957) | DRSC17642 | – | 3416 | – | 907 | – | inactive |
| alpha-Man-Ia (GeneID 31957) | DRSC18162 | – | 14422 | – | 7285 | – | inactive |
| alpha-Man-Ia (GeneID 31957) | DRSC18163 | – | 14531 | – | 7356 | – | inactive |
| alpha-Man-Ia (GeneID 31957) | DRSC18735 | – | 14716 | – | 7780 | – | inactive |
| gek (GeneID 37858) | DRSC04688 | – | 9756 | – | 3211 | – | inactive |
| CG30047 (GeneID 246414) | DRSC05340 | – | 15641 | – | 11863 | – | inactive |
| rdog (GeneID 43450) | DRSC14431 | – | 3872 | 4608 | 904 | 2236 | inactive |
| twit (GeneID 35353) | DRSC03210 | – | 8416 | – | 5606 | – | inactive |
| Hecw (GeneID 31905) | DRSC18261 | – | 18428 | – | 6973 | – | inactive |
| Hecw (GeneID 31905) | DRSC18276 | – | 19689 | – | 8769 | – | inactive |
| CG4390 (GeneID 42396) | DRSC15572 | – | 1824 | 5120 | 885 | 2170 | inactive |
| CG7945 (GeneID 39679) | DRSC10934 | – | 3584 | – | 1383 | – | inactive |
| CG9799 (GeneID 41647) | DRSC16567 | – | 3600 | – | 1661 | – | inactive |
| MICU3 (GeneID 42357) | DRSC13381 | – | 4549 | – | 2240 | – | inactive |
| MICU3 (GeneID 42357) | DRSC15613 | – | 4065 | 6205 | 1901 | 2496 | inactive |
| CG6321 (GeneID 39233) | DRSC10623 | – | 7628 | – | 3329 | – | inactive |
| nAChRalpha5 (GeneID 34826) | DRSC01360 | – | 22348 | – | 14691 | – | inactive |
| nAChRalpha5 (GeneID 34826) | DRSC01946 | – | 2613 | 7792 | 1329 | 4181 | inactive |
| nAChRalpha5 (GeneID 34826) | DRSC01947 | – | 4836 | 13848 | 1408 | 4962 | inactive |
| nAChRalpha5 (GeneID 34826) | DRSC22785 | – | 7.62e5 | 7.95e5 | 2.36e5 | 2.09e5 | inactive |
| CG11159 (GeneID 37341) | DRSC06050 | – | 8103 | – | 2454 | – | inactive |
| Kebab (GeneID 48440) | DRSC00827 | – | 15818 | – | 6493 | – | inactive |
| bchs (GeneID 33819) | DRSC03126 | – | 1322 | 7133 | 652 | 1067 | inactive |
| CG8565 (GeneID 32538) | DRSC20112 | – | 15456 | – | 8393 | – | inactive |
| CG11898 (GeneID 43451) | DRSC14432 | – | 12358 | 6.11e5 | 4345 | 3.23e5 | inactive |
| otu (GeneID 31789) | DRSC18811 | – | 21492 | – | 8681 | – | inactive |
| l(2)03659 (GeneID 47905) | DRSC07269 | – | 3072 | 8442 | 1027 | 3158 | inactive |
| l(2)03659 (GeneID 47905) | DRSC07638 | – | 2432 | 7170 | 651 | 2396 | inactive |
